Patent US20230357323A1, “HUMAN IL23 RECEPTOR BINDING POLYPEPTIDES” (University of Washington, priority 2020, published 2023)
These are yes or no findings as the source states them, for the method shown. Some binding calls cover weakened binding; strength is not graded here.

Amino acid sequences for entries named in this document (tags omitted). Residues count along the entry.
UniProt Q5VWK5, residues 24-355: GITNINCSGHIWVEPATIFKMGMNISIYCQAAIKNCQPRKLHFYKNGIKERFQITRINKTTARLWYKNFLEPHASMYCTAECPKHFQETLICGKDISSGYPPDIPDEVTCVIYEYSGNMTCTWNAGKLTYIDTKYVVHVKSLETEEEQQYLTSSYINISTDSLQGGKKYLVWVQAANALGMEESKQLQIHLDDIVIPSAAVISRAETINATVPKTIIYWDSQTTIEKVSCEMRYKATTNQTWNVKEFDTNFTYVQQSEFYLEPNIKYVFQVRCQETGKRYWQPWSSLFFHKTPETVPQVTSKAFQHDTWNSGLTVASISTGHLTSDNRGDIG

Molecular target: human IL-23R (hIL-23R), custom construct with C-terminal avi and his tags, biotinylated (human) (UniProt Q5VWK5)
Assay: yeast display FACS, SIF incubation then labeled hIL-23R, 5-7 rounds

| Binder | binding |
| --- | --- |
| B04dslf02IB (designed binder) PLWQVFYLLNTCIKRTGDPTCKKLAKALRECLKKGDLKACNELADKAVKYINSHHHHHH | binds |

Molecular target: human IL-23R (hIL-23R), custom construct with C-terminal avi and his tags, biotinylated (human) (UniProt Q5VWK5)
Assay: yeast display FACS

| Binder | binding |
| --- | --- |
| CETLEWMKRQGDNWMWFYMMNYC (designed binder) [23R_mini_03] | binds |
| CEEAEKIRRRAQTWEEFYRANQIC (designed binder) [23R_mini_04] | binds |
| CERAHEWAKRVGGWEAFYMANKLC (designed binder) [23R_mini_05] | binds |
| CERAEEERRRARTWEDFYKANKLC (designed binder) [23R_mini_06] | binds |
| CEEARELIRNANGWKDVWKAWKYC (designed binder) [23R_mini_07] | binds |
| PDPNRCEDYKRRLHLRWAVLWYCRRF (designed binder) [23R_mini_09] | binds |
| FCITCNNQTFCAEWRWAAWYMCQKAR (designed binder) [23R_mini_10] | binds |
| CRVCDNNFCVDAQWCWAAFYLLQKYK (designed binder) [23R_mini_11] | binds |
| CRVCRNNFCVDAQWCWAAFYMLQKYN (designed binder) [23R_mini_12] | binds |
| CKVKCGPVEFQAQMNWMCFYWRWRYC (designed binder) [23R_mini_13] | binds |
| CRVCMNNFCVDAQMCWMAFYLLNKYN (designed binder) [23R_mini_14] | binds |
| CRVCLNNFCVDAQMCWMAWYLLTKYR (designed binder) [23R_mini_15] | binds |
| FCITCGNETFCSEWRWEAFYLCQKAR (designed binder) [23R_mini_16] | binds |
| CKVKCGPVEFQATARWMCFYWWWKYC (designed binder) [23R_mini_17] | binds |
| FCITCNNQTFCAEWRWMAWYLCWRAR (designed binder) [23R_mini_18] | binds |

Molecular target: human IL-23R (hIL-23R), custom construct with C-terminal avi and his tags, biotinylated (human) (UniProt Q5VWK5)
Assay: yeast display, FACS rounds for binding labeled hIL-23R, NGS enrichment

| Binder | binding |
| --- | --- |
| PEELRRRVEHFLRQGVERWMVMWMLIQQGFDNKEVWKVLQEVL (designed binder) [23R_C] | binds |
| 23R_D (designed binder) ELWFLMALVIAACLWAWKASNVEEAEEALWWALVMAREANMRQLEEFVKRMREEVRRHL | binds |
| DVVVLLGLVIVIPERWRLWLIVVIAARVMGLRVEVHGHVIIVI (designed binder) [23R_E] | binds |
| TVVIINGVPFWFEFLWELFIFALLMALALGLKIEFHGELIEVK (designed binder) [23R_F] | binds |
| 23R_G (designed binder) TPARELVRELVALALLIAVLRNDIVRLTLDVQGFKITVDVDAHWEAFVRILLLAEILVLEWLKG | binds |
| 23R_H (designed binder) DWRELMLVWMALWWIWWAFLAGVPLIVEVVVNGLHFRVIVDRDPTTNKRALDIMLWVWEWLATL | binds |
| GRWELLVLAYLALLLGAAEAVWRLLELAKKLGDEMAFRWILELWERAL (designed binder) [23R_I] | binds |

Molecular target: human IL-23R (hIL-23R), custom construct with C-terminal avi and his tags, biotinylated (human) (UniProt Q5VWK5)
Assay: biolayer interferometry titration, biotinylated hIL-23R immobilised on streptavidin tips

| Binder | binding |
| --- | --- |
| 23R_A (designed binder) MESEKYLRELVKKYYEGKLSVQEAVEEVRKYARKKGLEAWMLTWMFMELVKRYIHHHHHH | binds |

Molecular target: human IL-23R (hIL-23R), custom construct with C-terminal avi and his tags, biotinylated (human) (UniProt Q5VWK5)
Assay: yeast display FACS and NGS analysis

| Binder | binding |
| --- | --- |
| B04dslf02_trunc16 (designed binder) NLWQIFYLLNTCIKRTGDPTCKKLKKALRECLKKGDEKACKELAKKAMKYI | binds |
| NLWQIFYLLNTCIKRTG (designed binder) [B04dslf02_trunc01] | binds |
| NLWQIFYLLNTCIKRTGDPTC (designed binder) [B04dslf02_trunc02] | binds |
| NLWQIFYLLNTCIKRTGDPTCK (designed binder) [B04dslf02_trunc03] | binds |
| NLWQIFYLLNTCIKRTGDPTCKKLK (designed binder) [B04dslf02_trunc04] | binds |
| NLWQIFYLLNTCIKRTGDPTCKKLKKAL (designed binder) [B04dslf02_trunc05] | binds |
| NLWQIFYLLNTCIKRTGDPTCKKLKKALRECL (designed binder) [B04dslf02_trunc06] | binds |
| NLWQIFYLLNTCIKRTGDPTCKKLKKALRECLK (designed binder) [B04dslf02_trunc07] | binds |
| NLWQIFYLLNTCIKRTGDPTCKKLKKALRECLKKGD (designed binder) [B04dslf02_trunc08] | binds |
| NLWQIFYLLNTCIKRTGDPTCKKLKKALRECLKKGDE (designed binder) [B04dslf02_trunc09] | binds |
| NLWQIFYLLNTCIKRTGDPTCKKLKKALRECLKKGDEKAC (designed binder) [B04dslf02_trunc10] | binds |
| NLWQIFYLLNTCIKRTGDPTCKKLKKALRECLKKGDEKACK (designed binder) [B04dslf02_trunc11] | binds |
| NLWQIFYLLNTCIKRTGDPTCKKLKKALRECLKKGDEKACKE (designed binder) [B04dslf02_trunc12] | binds |
| NLWQIFYLLNTCIKRTGDPTCKKLKKALRECLKKGDEKACKELA (designed binder) [B04dslf02_trunc13] | binds |
| NLWQIFYLLNTCIKRTGDPTCKKLKKALRECLKKGDEKACKELAK (designed binder) [B04dslf02_trunc14] | binds |
| NLWQIFYLLNTCIKRTGDPTCKKLKKALRECLKKGDEKACKELAKKAM (designed binder) [B04dslf02_trunc15] | binds |
